In patent publication US20070087326A1, “Method of measuring the biological activity of an urotensin II receptor” (priority 2005, published 2007):
At least one compound was matched to its structure with a doubt left.

Experiments:
Assay type in all cases: cell-based
[1] = molecular target: T1, endogeneous human U-II receptors (RMS13 cells) (Homo sapiens, UniProt Q9UKP6); assay: CDS (CellKey) electrical impedance assay in RMS13 cells
T1 construct: Cells of RMS13 and 6D9 have endogeneous human U-II receptors; host or cells: RMS13 (human) and 6D9, a sub-clone of RMS13
T1 sequence (Q9UKP6 1-389): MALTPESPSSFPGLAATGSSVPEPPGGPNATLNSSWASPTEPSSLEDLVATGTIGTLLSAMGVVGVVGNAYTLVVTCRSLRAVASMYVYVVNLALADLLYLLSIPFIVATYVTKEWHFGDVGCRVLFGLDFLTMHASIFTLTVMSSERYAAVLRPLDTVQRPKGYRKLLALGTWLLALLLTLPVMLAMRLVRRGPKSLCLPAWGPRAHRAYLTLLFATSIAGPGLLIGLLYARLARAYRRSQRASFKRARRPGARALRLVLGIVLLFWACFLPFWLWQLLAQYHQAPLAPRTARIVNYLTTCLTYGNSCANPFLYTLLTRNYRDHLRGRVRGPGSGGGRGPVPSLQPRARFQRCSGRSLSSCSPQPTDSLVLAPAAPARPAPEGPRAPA
Procedure: (§1) RMS13 was obtained from ATCC (ATCC NO: CRL-2061™, Manassas, Va.). […] The parent of the CHOrUII cells, CHO-K1 was obtained from ATCC (CAT# CRL-9618_CHOK1). The rat UT receptor was recombinantly cloned into CHO-K1 following standard molecular biology cloning techniques. The CHOrUII cells were under G418 selection. […] Angiotensin was purchased from Sigma. Urantide (PUT-3639-P1) was purchased from Peptide International (Louisville, Ky.).
(§2) Cells of RMS13 and 6D9 were cultured in RPMI medium (ATCC 30-2001) containing 10% FBS (Cat. No. SH30070.03, Hyclone, Logan, Utah). CHOrUII cells were grown in DMEMF12 (Gibco #11330-032) medium containing G418 at 1 mg/ml concentration. Cells were plated at 60 or 70K/well in a medium indicated above overnight. The medium was removed and replaced with Hanks balanced salt solution (HBSS, Gibco) containing 20 mM Hepes and 0.1% BSA. Electrical impedance was measured 2-5 minutes prior to compound addition. Compounds were added and measurements continued. The electrical impedance of the cells was measured using CellKey™ (MDS Sciex, Concord, Ontario) according to the protocol of the manufacturer, see for example Ciambrone et al. (2004, J Biomol Screen. 9(6): 467-80). […]
(§3) Cell density-dependence responses to Urotensin II (500 nM) were analyzed to determine the optimum cell density for the CDS assay at 28° C.

[2] = molecular target: T2, endogeneous human U-II receptors (6D9 cells) (Homo sapiens, UniProt Q9UKP6); assay: RT-CES impedance (cell index) assay in 6D9 cells; conditions: RT-CES system
T2 construct: Cells of RMS13 and 6D9 have endogeneous human U-II receptors; host or cells: RMS13 (human) and 6D9, a sub-clone of RMS13
T2 sequence (Q9UKP6 1-389): T1 sequence (Q9UKP6 1-389)

[3] = molecular target: T3, endogeneous human U-II receptors (6D9 cells, sub-clone of RMS13) (Homo sapiens, UniProt Q9UKP6); assay: CDS (CellKey) electrical impedance assay in 6D9 cells
T3 construct: Cells of RMS13 and 6D9 have endogeneous human U-II receptors; host or cells: RMS13 (human) and 6D9, a sub-clone of RMS13
T3 sequence (Q9UKP6 1-389): T1 sequence (Q9UKP6 1-389)
Procedure: as §1, §2, §3

## CC(C)[C@H](NC(=O)[C@@H]1CSSC[C@H](NC(=O)[C@H](CC(=O)O)NC(=O)[C@@H]2CCCN2C(=O)[C@@H](NC(=O)[C@@H](N)CCC(=O)O)[C@@H](C)O)C(=O)N[C@@H](Cc2ccccc2)C(=O)N[C@@H](Cc2c[nH]c3ccccc23)C(=O)N[C@@H](CCCCN)C(=O)N[C@@H](Cc2ccc(O)cc2)C(=O)N1)C(=O)O [U-II]
[1]
  effect on electrical impedance of the cells: caused an increase of the electrical impedance
[2]
  effect on electrical impedance of the cells: caused a dose dependent increase in the electrical impedance
[3]
  effect on electrical impedance of the cells: caused an increase of the electrical impedance
